Test results reported in PMC12003058.
No constants are given. Whether binding was seen depends on the method and setting. Binding seen in cells or lysates may run through a third protein. A result given as binding can be weak or reduced; the word gives no strength. Sequences can lack the tags named with a protein.

How the values were obtained:
[1] = target: GST-Brg1-Flag deletion mutant, C-terminal domain; assay: pull-down; 10 ug GST fusion protein (full length or deletion mutant) with glutathione-agarose beads and precleared lysate of HeLa cells expressing Brg1-V5 or Letmd1-V5; 6 hours at 4°C; four washes; blot with anti-V5 or anti-Flag; only the target purified
[2] = target: GST-Brg1-Flag deletion mutant, N-terminal domain; assay: as above

B1: Letmd1-V5, expressed in HeLa cells (protein, UniProt Q924L1 1-360)
chain: MALSRVCWARAALWGSTVAPGPFVTRRLQLGRSGPAWRAPRSSKLHLSPKADVKNLISYVVTKTRAINGSYHRFLGRHFPRFYALYTTFMKGIQMLWADGKKARRIKADMWKQNLKFHQLSYREMEHLRQFRRDITKCLFVGLISIPPFANYLVFLLMYLFPRQLLVKHFWTPKQQIDFLDVYHGLRRRSHSEVITHLRRASTFVSHEKLRRQLTDLCTKVQSGTHPAAQDVLALRDCFSTYPLGFSQLQASQMRALSQAMLLTPYLPPPLLRQRLKSHTTVIHQLDRALAKLGIGQLTAQEVKSACYLRGLNSTHIADDRCRAWLGEWLHISCSLKEPELSLLLHNVVLLSTNYLETRR
B1 was tested, and the binding [1] was “binds” and the binding [2] was “binds”.
